For some of these results: For expression read-outs the peptide stands for its source gene, whose mRNA was measured; the gene is not named for every peptide.
Columns and labels:
HLA-A*02 = assay: Identification and relative LC-MS quantitation of HLA-A*02-presented tumor-associated peptides on tissue samples (presentation profiles, Tables 13A, 13B, 15, FIG. 1); set-up: species or system human; key to Presentation score NHL / Presentation score CLL / Presentation score BRCA / Presentation score AML / Presentation score GB / Presentation score NSCLC / Presentation score GBC_CCC / Presentation score UEC / Presentation score MEL / Presentation score OSCAR / Presentation score GC / Presentation score UBC / Presentation score OC / Presentation score RCC / Presentation score CRC / Presentation score PCA / Presentation score HCC / Presentation score PC / Presentation score SCLC: specifically presented on tumors (++++); very highly over-presented on tumors compared to a panel of normal tissues (+++); highly over-presented on tumors compared to a panel of normal tissues (++); over-presented on tumors compared to a panel of normal tissues (+); details: for Presentation score GB: glioblastoma (N = 41) vs panel of normal tissues (N = 262); for Peptide Presentation on cancer entities: HLA-A*02-binding tumor-associated peptides; for Presentation score CLL: chronic lymphocytic leukemia (N = 17) vs panel of normal tissues (N = 262); for Presentation score CRC: colorectal cancer (N = 28) vs panel of normal tissues (N = 262); for Presentation score NHL: non-Hodgkin lymphoma (N = 18) vs panel of normal tissues (N = 262)
source genes (mRNA) [1] = assay: Gene and exon expression of source genes, TCGA tumor samples compared with normal tissue samples (Lonsdale, 2013) (Table 17); set-up: species or system human; details: for Over-expression category of source gene (target coverage), BLCA: BLCA = Bladder urothelial carcinoma (N = 408); for Over-expression category of source gene (target coverage), BRCA: BRCA = Breast cancer (N = 1104), tumors more than 2-fold above highest 75% percentile of normal tissues; for Over-expression category of source gene (target coverage), CHOL: CHOL = Cholangiocarcinoma (N = 36); for Over-expression category of source gene (target coverage), COAD: COAD = Colon and rectal adenocarcinoma (N = 462); for Over-expression category of source gene (target coverage), DLBC: DLBC = Lymphoid neoplasm diffuse large B-cell lymphoma (N = 48); for Over-expression category of source gene (target coverage), ESCA: ESCA = Esophageal cancer (N = 185); for Over-expression category of source gene (target coverage), GBM: GBM = Glioblastoma multiforme (N = 169); for Over-expression category of source gene (target coverage), KIRC: KIRC = Clear cell kidney carcinoma (N = 534); for Over-expression category of source gene (target coverage), KIRP: KIRP = Papillary kidney carcinoma (N = 291); for Over-expression category of source gene (target coverage), LAML: LAML = Acute Myeloid Leukemia (N = 173); for Over-expression category of source gene (target coverage), LGG: LGG = Lower grade glioma (N = 534); for Over-expression category of source gene (target coverage), LIHC: LIHC = Liver hepatocellular carcinoma (N = 374); for Over-expression category of source gene (target coverage), LUAD: LUAD = Lung adenocarcinoma (N = 517); for Over-expression category of source gene (target coverage), LUSC: LUSC = Lung squamous cell carcinoma (N = 503); for Over-expression category of source gene (target coverage), OV: OV = Ovarian serous cystadenocarcinoma (N = 309); for Over-expression category of source gene (target coverage), PAAD: PAAD = Pancreatic ductal adenocarcinoma (N = 179); for Over-expression category of source gene (target coverage), PRAD: PRAD = Prostate adenocarcinoma (N = 498); for Over-expression category of source gene (target coverage), READ: READ = Colon and rectal adenocarcinoma (N = 167); for Over-expression category of source gene (target coverage), SKCM: SKCM = Skin cutaneous melanoma (N = 473); for Over-expression category of source gene (target coverage), STAD: STAD = Stomach adenocarcinoma (N = 415); for Over-expression category of source gene (target coverage), UCEC: UCEC = Uterine corpus endometrial carcinoma (N = 546)
source genes (mRNA) [2] = assay: Expression profiling of source genes by in-house RNASeq of tumor and normal tissues (Table 18, FIG. 2); set-up: species or system human; key: very highly over-expressed in tumors compared to a panel of normal tissues (+++); highly over-expressed in tumors compared to a panel of normal tissues (++); over-expressed in tumors compared to a panel of normal tissues (+); details: source gene of peptide; for Expression score GB: glioblastoma (N = 24) vs panel of normal tissues; for Expression score SCLC: small cell lung cancer (N = 10) vs panel of normal tissues; for Expression score AML: acute myeloid leukemia (N = 11) vs panel of normal tissues; for Expression score CLL: chronic lymphocytic leukemia (N = 10) vs panel of normal tissues; for Expression score OSCAR: esophageal cancer incl. gastric-esophageal junction (N = 11) vs panel of normal tissues; for Expression score NHL: non-Hodgkin lymphoma (N = 10) vs panel of normal tissues; for Expression score OC: ovarian cancer (N = 12) vs panel of normal tissues
[3] = Table 13A, cancer entities on which the peptide was found presented
[4] = Table 13B, presentation on additional cancer entities

| Substance | Presentation score GB (HLA-A*02; HLA-A*02 peptides) | Peptide Presentation on cancer entities (HLA-A*02; [3]) | Peptide Presentation on cancer entities (HLA-A*02; [4]) | Over-expression category of source gene (target coverage), BLCA (source genes (mRNA) [1]; same cutoff) | Over-expression category of source gene (target coverage), BRCA (source genes (mRNA) [1]) | Over-expression category of source gene (target coverage), CHOL (source genes (mRNA) [1]; same cutoff) | Over-expression category of source gene (target coverage), COAD (source genes (mRNA) [1]; same cutoff) | Over-expression category of source gene (target coverage), DLBC (source genes (mRNA) [1]; same cutoff) | Over-expression category of source gene (target coverage), ESCA (source genes (mRNA) [1]; same cutoff) | Over-expression category of source gene (target coverage), GBM (source genes (mRNA) [1]; same cutoff) | Over-expression category of source gene (target coverage), KIRC (source genes (mRNA) [1]; same cutoff) | Over-expression category of source gene (target coverage), KIRP (source genes (mRNA) [1]; same cutoff) | Over-expression category of source gene (target coverage), LAML (source genes (mRNA) [1]; same cutoff) | Over-expression category of source gene (target coverage), LGG (source genes (mRNA) [1]; same cutoff) | Over-expression category of source gene (target coverage), LIHC (source genes (mRNA) [1]; same cutoff) | Over-expression category of source gene (target coverage), LUSC (source genes (mRNA) [1]; same cutoff) | Over-expression category of source gene (target coverage), OV (source genes (mRNA) [1]; same cutoff) | Over-expression category of source gene (target coverage), SKCM (source genes (mRNA) [1]; same cutoff) | Over-expression category of source gene (target coverage), STAD (source genes (mRNA) [1]; same cutoff) | Expression score SCLC (source genes (mRNA) [2]) | further results |
| --- | --- | --- | --- | --- | --- | --- | --- | --- | --- | --- | --- | --- | --- | --- | --- | --- | --- | --- | --- | --- | --- |
| 148: peptide found in SRR (gene looked up) (MLAGIAITV; listed as Homo sapiens) [compound 148] | +++ | GB, GBC_CCC | GBC_CCC, NHL | B (>= 20% of tumors above the cutoff, but <50%) | A (>=50% of tumors above the cutoff) | B (>= 20% of tumors above the cutoff, but <50%) | B (>= 20% of tumors above the cutoff, but <50%) | A (>=50% of tumors above the cutoff) | B (>= 20% of tumors above the cutoff, but <50%) | A (>=50% of tumors above the cutoff) | B (>= 20% of tumors above the cutoff, but <50%) | A (>=50% of tumors above the cutoff) | A (>=50% of tumors above the cutoff) | A (>=50% of tumors above the cutoff) | C (>=5% of tumors above the cutoff, but <20%) | B (>= 20% of tumors above the cutoff, but <50%) | A (>=50% of tumors above the cutoff) | A (>=50% of tumors above the cutoff) | B (>= 20% of tumors above the cutoff, but <50%) | + | Over-expression category of source gene (target coverage), KICH (source genes (mRNA) [1]; KICH = Kidney chromophobe (N = 66), same cutoff): C (>=5% of tumors above the cutoff, but <20%); Over-expression category of source gene (target coverage), LUAD (source genes (mRNA) [1]; same cutoff): B (>= 20% of tumors above the cutoff, but <50%); Over-expression category of source gene (target coverage), PAAD (source genes (mRNA) [1]; same cutoff): B (>= 20% of tumors above the cutoff, but <50%); Over-expression category of source gene (target coverage), PRAD (source genes (mRNA) [1]; same cutoff): A (>=50% of tumors above the cutoff); Over-expression category of source gene (target coverage), READ (source genes (mRNA) [1]; same cutoff): B (>= 20% of tumors above the cutoff, but <50%); Over-expression category of source gene (target coverage), UCEC (source genes (mRNA) [1]; same cutoff): A (>=50% of tumors above the cutoff); Expression score GB (source genes (mRNA) [2]): ++ |
| 150: peptide found in RBM15 (gene looked up) (VLYDRPLKI; listed as Homo sapiens) [compound 150] |  | NSCLC, CLL, OSCAR, OC, MEL, RCC, CRC, NHL | HCC, SCLC, UEC, BRCA | A (>=50% of tumors above the cutoff) | B (>= 20% of tumors above the cutoff, but <50%) | B (>= 20% of tumors above the cutoff, but <50%) | B (>= 20% of tumors above the cutoff, but <50%) | A (>=50% of tumors above the cutoff) | A (>=50% of tumors above the cutoff) | B (>= 20% of tumors above the cutoff, but <50%) | B (>= 20% of tumors above the cutoff, but <50%) | B (>= 20% of tumors above the cutoff, but <50%) | A (>=50% of tumors above the cutoff) | B (>= 20% of tumors above the cutoff, but <50%) | B (>= 20% of tumors above the cutoff, but <50%) | B (>= 20% of tumors above the cutoff, but <50%) | C (>=5% of tumors above the cutoff, but <20%) | B (>= 20% of tumors above the cutoff, but <50%) | B (>= 20% of tumors above the cutoff, but <50%) | + | Presentation score CLL (HLA-A*02; HLA-A*02 peptides): ++; Presentation score CRC (HLA-A*02; HLA-A*02 peptides): ++; Presentation score OSCAR (HLA-A*02; HLA-A*02 peptides, esophageal cancer, including cancer of the gastric-esophageal junction (N = 17) vs panel of normal tissues (N = 262)): +; Presentation score MEL (HLA-A*02; HLA-A*02 peptides, melanoma (N = 7) vs panel of normal tissues (N = 262)): +; Presentation score NHL (HLA-A*02; HLA-A*02 peptides): +; Over-expression category of source gene (target coverage), LUAD (source genes (mRNA) [1]; same cutoff): B (>= 20% of tumors above the cutoff, but <50%); Over-expression category of source gene (target coverage), PAAD (source genes (mRNA) [1]; same cutoff): A (>=50% of tumors above the cutoff); Over-expression category of source gene (target coverage), PRAD (source genes (mRNA) [1]; same cutoff): A (>=50% of tumors above the cutoff); Over-expression category of source gene (target coverage), READ (source genes (mRNA) [1]; same cutoff): B (>= 20% of tumors above the cutoff, but <50%); Over-expression category of source gene (target coverage), UCEC (source genes (mRNA) [1]; same cutoff): A (>=50% of tumors above the cutoff); Expression score BRCA (source genes (mRNA) [2]; BRCA tumors vs panel of normal tissues): +; Expression score AML (source genes (mRNA) [2]): +; Expression score CLL (source genes (mRNA) [2]): ++; Expression score OSCAR (source genes (mRNA) [2]): +; Expression score GB (source genes (mRNA) [2]): +; Expression score NHL (source genes (mRNA) [2]): +; Expression score NSCLC (source genes (mRNA) [2]; non-small cell lung cancer (N = 11) vs panel of normal tissues): +; Expression score OC (source genes (mRNA) [2]): + |
| 152: peptide found in KDM5A (gene looked up) (MMVGDLLEV; listed as Homo sapiens) [compound 152] | +++ | GB, GC, NSCLC, CLL, MEL, CRC, AML, NHL | UEC, HNSCC |  | C (>=5% of tumors above the cutoff, but <20%) |  |  |  | B (>= 20% of tumors above the cutoff, but <50%) |  |  |  | A (>=50% of tumors above the cutoff) |  |  | C (>=5% of tumors above the cutoff, but <20%) | C (>=5% of tumors above the cutoff, but <20%) | C (>=5% of tumors above the cutoff, but <20%) | B (>= 20% of tumors above the cutoff, but <50%) | + | Presentation score AML (HLA-A*02; HLA-A*02 peptides, acute myeloid leukemia (N = 18) vs panel of normal tissues (N = 262)): +++; Presentation score CLL (HLA-A*02; HLA-A*02 peptides): +++; Presentation score CRC (HLA-A*02; HLA-A*02 peptides): +++; Presentation score NHL (HLA-A*02; HLA-A*02 peptides): +; Presentation score NSCLC (HLA-A*02; HLA-A*02 peptides, non-small cell lung cancer (N = 90) vs panel of normal tissues (N = 262)): +++; Expression score AML (source genes (mRNA) [2]): +; Expression score CLL (source genes (mRNA) [2]): +; Expression score OSCAR (source genes (mRNA) [2]): +; Expression score NHL (source genes (mRNA) [2]): +; Expression score OC (source genes (mRNA) [2]): + |
